Results are given in words; binding and its absence hold for the method and conditions named. Some entries that bind do so weakly or less than the wild type.
Columns and labels:
[1] = biological target: cyno monkey CDH6-ECD-His (cyno monkey); test: ELISA, antigen coated
[2] = biological target: cyno monkey CDH6-ECD-His (cyno monkey); test: BLI (Octet), antibody on AHC sensor
[3] = biological target: cyno monkey CDH6-ECD-His (cyno monkey); test: ELISA, antigen coated at 1 ug/mL, 3-fold antibody dilutions, HRP anti-human antibody, OD450

Measured: binding

B1: CL069707-H1L1 (antibody, human IgG1, kappa, V domains shown)
VH: EVQLVESGGGLVQPGGSLRLSCAASGFTFTTYAMNWVRQAPGKGLEWVARIRIKNNNYATYYADSVTDRFTISRDDSKNSLYLQMNSLKTEDTAVYYCVRPDYGNYGLAYWGQGTLVTVSS
VL: DIQLTQSPSSLSASVGDRVTITCSASSSISSHYLHWYQQKPGKSPKLLIYRSFYLASGVPSRFSGSGSGTDFTLTISSLQPEDFATYYCQQDIVPLTFGQGTKLEIKR
binds: all assays above

— US20250090677A1, “ANTI-CDH6 ANTIBODIES AND ANTIBODY-DRUG CONJUGATES THEREOF” (MULTITUDE THERAPEUTICS INC., priority 2021, published 2025)
